Experimental data published in article PMC5422876.
These are yes or no findings as the source states them, for the method shown. In cells and extracts the contact can be indirect. Some binding calls cover weakened binding; strength is not graded here.

Biological target: T1, tumor growth factor β (TGF-β) activated kinase 1 (TAK1) (mouse (endogenous in 3T3-L1)) (UniProt Q62073)
T1 sequence: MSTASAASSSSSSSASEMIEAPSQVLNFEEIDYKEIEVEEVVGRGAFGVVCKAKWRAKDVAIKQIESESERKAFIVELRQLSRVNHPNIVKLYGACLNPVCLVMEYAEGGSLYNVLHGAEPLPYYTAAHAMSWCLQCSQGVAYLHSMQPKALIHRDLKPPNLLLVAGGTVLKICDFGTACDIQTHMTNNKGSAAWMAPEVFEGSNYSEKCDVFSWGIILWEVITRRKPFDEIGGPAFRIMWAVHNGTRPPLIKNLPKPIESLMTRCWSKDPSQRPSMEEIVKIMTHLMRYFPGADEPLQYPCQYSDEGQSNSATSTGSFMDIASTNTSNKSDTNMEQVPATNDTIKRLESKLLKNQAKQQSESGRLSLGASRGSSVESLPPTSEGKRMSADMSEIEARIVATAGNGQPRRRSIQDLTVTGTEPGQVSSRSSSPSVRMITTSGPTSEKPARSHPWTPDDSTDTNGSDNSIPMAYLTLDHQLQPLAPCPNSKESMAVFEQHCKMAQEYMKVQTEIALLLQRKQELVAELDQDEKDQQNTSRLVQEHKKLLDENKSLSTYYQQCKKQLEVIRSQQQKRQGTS
Experiment: co-IP; Universal Magnetic Co-IP kit (Active Motif); cytosolic fraction of 3T3-L1 adipocytes exposed to 250 μM palmitate with or without pretreatment with 50 μM EPA-Na; immune complexes analysed by western blotting; control mouse IgG

B1: TGF-β activated kinase 1 binding protein 1 (TAB1) (protein, UniProt Q8CF89 1-502)
chain: MAAQRRSLLQSEQQPSWTDDLPLCHLSGVGSASNRSYSADGKGTESHPPEDNWLKFRSENNCFLYGVFNGYDGNRVTNFVAQRLSAELLLGQLNTEHTEADVRRVLLQAFDVVERSFLESIDDALAEKASLQSQLPEGVPQHQLPPQYQKILERLKALEREISGGAMAVVAVLLNSKLYVANVGTNRALLCKSTVDGLQVTQLNMDHTTENEDELFRLSQLGLDAGKIKQMGVICGQESTRRIGDYKVKYGYTDIDLLSAAKSKPIIAEPEIHGAQPLDGVTGFLVLMSEGLYKALEAAHGPGQANQEIAAMIDTEFAKQTSLDAVAQAVVDRVKRIHSDTFASGGERAKFCPRHEDMTLLVRNFGYPLGEMSQPTPTPAPGGRVYPVSVPYSSAQSTSKTSVTLSLVMPSQGQMVNGSHSASTLDEATPTLTNQSPTLTLQSTNTHTQSSSSSSDGGLFRSRPAHSLPPGEDGRVEPYVDFAEFYRLWSVDHGEQSVMTAP
B1 was tested. Which binding did it give?
The binding was “binds”.
